Results on 24 targets are retold here after the supplement of paper PMC10849652.

Sequences of proteins named here, by UniProt entry; tags and fusion partners are left off. A change or cut given only in a name is not applied to a line headed by its entry.
UniProt Q7L523, whole entry, looked up: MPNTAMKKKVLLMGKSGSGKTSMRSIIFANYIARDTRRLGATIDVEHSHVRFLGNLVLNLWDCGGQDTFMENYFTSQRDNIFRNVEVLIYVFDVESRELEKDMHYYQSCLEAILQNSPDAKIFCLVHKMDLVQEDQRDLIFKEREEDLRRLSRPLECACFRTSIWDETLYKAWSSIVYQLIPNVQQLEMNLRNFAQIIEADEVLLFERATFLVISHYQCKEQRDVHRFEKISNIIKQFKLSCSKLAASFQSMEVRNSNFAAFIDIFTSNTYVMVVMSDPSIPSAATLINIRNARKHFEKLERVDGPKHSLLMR
UniProt P04844: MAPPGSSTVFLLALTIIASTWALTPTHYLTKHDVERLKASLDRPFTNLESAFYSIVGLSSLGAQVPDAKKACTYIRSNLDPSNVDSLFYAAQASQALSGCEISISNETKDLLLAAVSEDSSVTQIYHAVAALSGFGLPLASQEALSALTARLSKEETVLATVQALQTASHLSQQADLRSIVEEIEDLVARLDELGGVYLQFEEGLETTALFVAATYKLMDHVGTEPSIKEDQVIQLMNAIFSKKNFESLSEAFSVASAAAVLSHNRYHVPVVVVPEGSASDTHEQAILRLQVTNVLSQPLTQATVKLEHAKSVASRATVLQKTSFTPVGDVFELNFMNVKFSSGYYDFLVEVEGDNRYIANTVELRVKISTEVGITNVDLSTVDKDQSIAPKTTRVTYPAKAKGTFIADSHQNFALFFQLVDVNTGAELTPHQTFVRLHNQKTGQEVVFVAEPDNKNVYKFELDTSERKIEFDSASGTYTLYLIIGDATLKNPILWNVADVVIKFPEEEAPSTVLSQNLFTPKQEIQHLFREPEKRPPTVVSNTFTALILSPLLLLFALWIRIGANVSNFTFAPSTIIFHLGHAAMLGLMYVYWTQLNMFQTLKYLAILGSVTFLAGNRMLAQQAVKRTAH
UniProt Q15050: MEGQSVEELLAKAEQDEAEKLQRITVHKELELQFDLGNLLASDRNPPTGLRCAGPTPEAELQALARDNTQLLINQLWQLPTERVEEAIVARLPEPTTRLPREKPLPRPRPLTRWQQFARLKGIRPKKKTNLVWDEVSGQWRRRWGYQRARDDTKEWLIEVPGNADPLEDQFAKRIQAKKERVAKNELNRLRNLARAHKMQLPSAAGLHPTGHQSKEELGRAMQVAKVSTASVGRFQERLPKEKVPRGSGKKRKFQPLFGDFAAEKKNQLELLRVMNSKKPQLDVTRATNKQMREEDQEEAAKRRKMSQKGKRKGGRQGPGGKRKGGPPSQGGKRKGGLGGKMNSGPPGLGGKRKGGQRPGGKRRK
UniProt Q7LG56, whole entry, looked up: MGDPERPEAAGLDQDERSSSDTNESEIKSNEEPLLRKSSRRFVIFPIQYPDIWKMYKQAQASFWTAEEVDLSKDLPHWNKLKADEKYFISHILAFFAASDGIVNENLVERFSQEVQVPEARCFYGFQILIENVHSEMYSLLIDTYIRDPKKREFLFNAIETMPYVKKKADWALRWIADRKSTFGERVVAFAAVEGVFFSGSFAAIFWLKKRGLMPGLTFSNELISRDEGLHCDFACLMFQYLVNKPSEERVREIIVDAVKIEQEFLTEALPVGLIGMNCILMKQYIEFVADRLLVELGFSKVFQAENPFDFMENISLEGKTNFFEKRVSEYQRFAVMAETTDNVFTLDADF
UniProt Q5VZM2, whole entry, looked up: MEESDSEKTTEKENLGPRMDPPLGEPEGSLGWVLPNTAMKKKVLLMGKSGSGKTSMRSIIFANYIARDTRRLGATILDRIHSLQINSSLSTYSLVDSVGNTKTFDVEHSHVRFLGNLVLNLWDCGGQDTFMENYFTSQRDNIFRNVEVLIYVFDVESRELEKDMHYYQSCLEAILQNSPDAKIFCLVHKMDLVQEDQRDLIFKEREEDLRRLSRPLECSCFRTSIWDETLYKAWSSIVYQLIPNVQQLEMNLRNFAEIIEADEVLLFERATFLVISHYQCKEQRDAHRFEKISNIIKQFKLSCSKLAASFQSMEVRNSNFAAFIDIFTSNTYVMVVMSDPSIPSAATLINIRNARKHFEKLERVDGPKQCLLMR
UniProt Q9P2E9: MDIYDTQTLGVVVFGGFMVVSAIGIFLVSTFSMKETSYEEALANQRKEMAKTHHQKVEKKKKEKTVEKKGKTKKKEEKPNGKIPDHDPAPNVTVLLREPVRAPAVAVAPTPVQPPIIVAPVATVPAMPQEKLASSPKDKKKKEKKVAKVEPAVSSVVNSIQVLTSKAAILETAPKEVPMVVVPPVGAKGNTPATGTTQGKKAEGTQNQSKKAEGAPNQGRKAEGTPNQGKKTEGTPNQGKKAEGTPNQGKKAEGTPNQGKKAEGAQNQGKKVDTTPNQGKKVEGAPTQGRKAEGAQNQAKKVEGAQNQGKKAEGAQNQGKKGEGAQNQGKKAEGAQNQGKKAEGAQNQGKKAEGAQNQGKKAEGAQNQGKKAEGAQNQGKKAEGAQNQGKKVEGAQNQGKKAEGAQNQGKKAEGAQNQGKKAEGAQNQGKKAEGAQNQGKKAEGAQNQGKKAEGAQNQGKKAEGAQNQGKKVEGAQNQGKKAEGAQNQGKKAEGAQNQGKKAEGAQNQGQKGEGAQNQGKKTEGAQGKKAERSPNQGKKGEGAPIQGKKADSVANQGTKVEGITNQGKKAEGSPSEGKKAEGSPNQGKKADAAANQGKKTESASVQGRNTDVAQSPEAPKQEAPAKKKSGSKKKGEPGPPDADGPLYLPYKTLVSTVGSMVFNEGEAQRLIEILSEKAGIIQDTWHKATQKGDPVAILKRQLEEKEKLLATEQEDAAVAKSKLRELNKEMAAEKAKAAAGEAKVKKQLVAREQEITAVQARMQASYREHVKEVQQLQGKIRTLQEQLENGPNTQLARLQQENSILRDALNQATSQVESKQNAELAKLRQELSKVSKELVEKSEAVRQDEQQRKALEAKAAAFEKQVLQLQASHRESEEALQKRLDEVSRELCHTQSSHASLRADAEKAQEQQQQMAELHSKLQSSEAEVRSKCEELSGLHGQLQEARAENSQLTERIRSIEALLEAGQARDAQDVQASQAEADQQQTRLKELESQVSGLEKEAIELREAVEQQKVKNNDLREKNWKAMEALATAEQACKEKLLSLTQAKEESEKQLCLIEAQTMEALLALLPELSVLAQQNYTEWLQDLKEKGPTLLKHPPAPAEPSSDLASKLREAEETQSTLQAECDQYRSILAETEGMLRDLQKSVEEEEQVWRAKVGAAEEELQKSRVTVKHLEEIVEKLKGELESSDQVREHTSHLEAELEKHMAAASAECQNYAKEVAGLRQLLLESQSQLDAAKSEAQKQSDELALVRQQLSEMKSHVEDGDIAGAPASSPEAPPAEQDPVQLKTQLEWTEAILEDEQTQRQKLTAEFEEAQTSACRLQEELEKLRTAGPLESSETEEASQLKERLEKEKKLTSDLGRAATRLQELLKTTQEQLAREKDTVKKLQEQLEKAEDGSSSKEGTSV
UniProt Q8WWV3: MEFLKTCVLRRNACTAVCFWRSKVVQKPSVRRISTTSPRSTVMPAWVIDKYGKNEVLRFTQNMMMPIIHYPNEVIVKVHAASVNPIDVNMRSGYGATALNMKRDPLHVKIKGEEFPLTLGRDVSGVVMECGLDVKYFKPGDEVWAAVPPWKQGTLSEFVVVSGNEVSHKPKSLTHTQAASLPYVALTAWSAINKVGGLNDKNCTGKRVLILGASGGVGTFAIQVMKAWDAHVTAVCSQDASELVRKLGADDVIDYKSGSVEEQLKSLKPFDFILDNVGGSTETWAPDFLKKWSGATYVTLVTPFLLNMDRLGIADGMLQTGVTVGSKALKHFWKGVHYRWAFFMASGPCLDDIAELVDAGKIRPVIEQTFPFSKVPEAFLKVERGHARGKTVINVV
UniProt Q9HA92: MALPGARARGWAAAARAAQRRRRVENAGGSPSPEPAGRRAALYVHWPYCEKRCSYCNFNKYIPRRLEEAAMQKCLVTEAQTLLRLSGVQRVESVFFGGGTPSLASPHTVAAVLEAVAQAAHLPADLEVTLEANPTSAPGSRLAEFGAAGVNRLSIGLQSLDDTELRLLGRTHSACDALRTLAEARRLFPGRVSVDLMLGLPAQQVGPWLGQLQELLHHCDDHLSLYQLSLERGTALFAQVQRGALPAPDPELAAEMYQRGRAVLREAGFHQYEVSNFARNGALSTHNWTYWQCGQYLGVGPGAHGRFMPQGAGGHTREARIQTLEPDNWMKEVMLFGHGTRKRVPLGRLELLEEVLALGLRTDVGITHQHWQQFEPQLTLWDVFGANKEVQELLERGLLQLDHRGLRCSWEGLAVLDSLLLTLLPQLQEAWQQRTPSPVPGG
UniProt Q92766: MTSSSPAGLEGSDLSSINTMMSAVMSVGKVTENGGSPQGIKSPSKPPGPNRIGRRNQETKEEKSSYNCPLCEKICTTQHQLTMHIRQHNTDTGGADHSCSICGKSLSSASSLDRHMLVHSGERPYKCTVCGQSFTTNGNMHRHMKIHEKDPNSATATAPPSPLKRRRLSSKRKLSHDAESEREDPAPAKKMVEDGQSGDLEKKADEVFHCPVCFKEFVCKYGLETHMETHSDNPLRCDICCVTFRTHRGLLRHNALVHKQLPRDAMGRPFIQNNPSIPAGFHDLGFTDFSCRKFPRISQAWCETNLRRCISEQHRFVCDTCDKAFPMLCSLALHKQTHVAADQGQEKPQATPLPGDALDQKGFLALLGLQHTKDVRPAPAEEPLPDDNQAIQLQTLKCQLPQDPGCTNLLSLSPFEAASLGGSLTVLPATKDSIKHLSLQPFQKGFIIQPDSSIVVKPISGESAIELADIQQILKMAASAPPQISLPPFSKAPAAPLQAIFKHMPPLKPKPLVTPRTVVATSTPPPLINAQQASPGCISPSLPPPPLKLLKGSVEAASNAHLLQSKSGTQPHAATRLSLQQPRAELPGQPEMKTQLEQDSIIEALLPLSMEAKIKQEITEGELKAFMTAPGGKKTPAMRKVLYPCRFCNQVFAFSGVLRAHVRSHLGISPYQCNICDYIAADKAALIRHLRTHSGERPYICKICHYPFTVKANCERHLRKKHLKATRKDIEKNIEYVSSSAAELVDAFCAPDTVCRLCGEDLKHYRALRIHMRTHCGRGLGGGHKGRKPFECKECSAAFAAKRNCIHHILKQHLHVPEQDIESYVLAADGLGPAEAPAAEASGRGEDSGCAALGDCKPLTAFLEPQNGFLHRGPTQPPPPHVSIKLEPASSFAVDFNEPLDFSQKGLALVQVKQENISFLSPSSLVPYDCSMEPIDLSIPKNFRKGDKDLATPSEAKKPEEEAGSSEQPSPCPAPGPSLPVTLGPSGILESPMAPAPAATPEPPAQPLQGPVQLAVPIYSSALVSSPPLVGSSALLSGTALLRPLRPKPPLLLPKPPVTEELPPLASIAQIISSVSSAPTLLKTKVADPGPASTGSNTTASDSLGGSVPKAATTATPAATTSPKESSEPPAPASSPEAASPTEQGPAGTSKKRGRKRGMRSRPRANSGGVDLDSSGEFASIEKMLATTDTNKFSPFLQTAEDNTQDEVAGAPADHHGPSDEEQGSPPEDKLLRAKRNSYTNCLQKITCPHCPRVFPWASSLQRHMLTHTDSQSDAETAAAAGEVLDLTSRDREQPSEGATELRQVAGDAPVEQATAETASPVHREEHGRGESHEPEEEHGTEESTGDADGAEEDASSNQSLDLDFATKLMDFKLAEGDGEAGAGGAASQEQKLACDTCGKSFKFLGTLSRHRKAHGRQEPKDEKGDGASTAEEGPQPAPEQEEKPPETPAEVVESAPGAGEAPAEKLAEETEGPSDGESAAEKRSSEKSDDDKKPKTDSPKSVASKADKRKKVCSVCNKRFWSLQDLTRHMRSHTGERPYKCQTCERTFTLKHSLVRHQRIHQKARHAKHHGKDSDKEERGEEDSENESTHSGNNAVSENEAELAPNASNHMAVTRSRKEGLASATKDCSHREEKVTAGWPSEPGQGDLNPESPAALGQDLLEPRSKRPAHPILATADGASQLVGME
UniProt Q9Y3B9: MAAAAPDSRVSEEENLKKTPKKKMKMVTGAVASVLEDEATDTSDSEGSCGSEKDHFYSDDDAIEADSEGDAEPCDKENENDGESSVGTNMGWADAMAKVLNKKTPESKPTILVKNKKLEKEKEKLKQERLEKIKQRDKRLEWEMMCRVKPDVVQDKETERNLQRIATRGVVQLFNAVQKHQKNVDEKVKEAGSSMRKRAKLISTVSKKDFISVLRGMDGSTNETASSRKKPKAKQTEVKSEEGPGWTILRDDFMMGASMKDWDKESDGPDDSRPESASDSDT
UniProt Q9BUL9: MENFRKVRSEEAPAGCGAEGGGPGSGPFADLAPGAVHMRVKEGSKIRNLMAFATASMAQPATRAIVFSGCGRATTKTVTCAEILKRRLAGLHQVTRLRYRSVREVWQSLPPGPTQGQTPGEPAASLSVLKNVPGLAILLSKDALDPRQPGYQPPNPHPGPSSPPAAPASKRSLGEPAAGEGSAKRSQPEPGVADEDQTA

This is one part of the list.

What all share (assay): log2 fold change, soluble protein after heating vs DMSO (PISA); higher = thermal stabilisation; K562 lysate, 10 uM; active = over 0.2 and 3.5 SD of the protein, either way, in both replicates (recomputed)
Compound in test [1]: NCC(=O)Nc1ccc(-n2nc(C(F)(F)F)cc2-c2ccc3c(ccc4ccccc43)c2)cc1
In short, it runs like this:
(§1)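 K562 pellets were dounce-homogenised in PBS pH 7.4 with 1 mM MgCl2, and the crude extract at 1 mg/mL protein was treated with 10 μM compound for 30 min. Aliquots were heated for 3 min across 48°C-58°C, pooled, and brought to 0.5% NP-40 at 4°C; soluble protein was the supernatant after 21,000xg for 90 min. Soluble protein was quantified by TMTpro 16plex LC-MS/MS with channel sums equalised, and reported as log2 fold change in thermal stability against DMSO controls, with values from duplicates.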

Compound in test [2]: O=C(CCCCCCC(=O)Nc1ccccc1)NO [vorinostat]
The method, boiled down:
as §1

Compound in test [3]: O=C(O)c1ccc2c(c1)nc(Nc1cccc(Cl)c1)c1ccncc12 [silmitasertib]
The method, boiled down: as §1

Compound in test [4]: O=C1NC(=O)C(c2cnc3ccccn23)=C1c1cn2c3c(cc(F)cc13)CN(C(=O)N1CCCCC1)CC2
In short, it runs like this:
as §1

Compound in test [5]: c1cn2cc(-c3ccc4cn[nH]c4c3)nc(Nc3ccc(N4CCOCC4)cc3)c2n1 [entospletinib]
The method, boiled down: as §1

Take RTN4 isoform 2 (UniProt Q9NQC3): the log2 fold change in test [1] is inactive: -0.01; in test [2] it was inactive: 0.079; in test [3], inactive: -0.184; in test [4], inactive: -0.077; in test [5], inactive: -0.004.
Turning to RRAGA (UniProt Q7L523), the log2 fold change in test [1] is inactive: -0.007; in test [2], inactive: 0.099; in test [3] it was inactive: 0.039; in test [4] it was inactive: -0.015; in test [5] it was inactive: 0.05.
Take RTRAF (UniProt Q9Y224): the log2 fold change was inactive: -0.008 in test [1]; inactive: -0.059 in test [2]; inactive: -0.003 in test [3]; inactive: -0.039 in test [4]; inactive: 0.029 in test [5].
In the case of RPS19 (UniProt M0R2L9), the log2 fold change in test [1] was inactive: -0.167; in test [2] it was inactive: -0.015; in test [3], inactive: 0.244; in test [4], inactive: 0.33; in test [5], inactive: -0.124.
Consider RRP8 (UniProt O43159), for which the log2 fold change was inactive: 0.017 in test [1]; inactive: -0.066 in test [2]; inactive: 0.002 in test [3]; inactive: -0.009 in test [4]; inactive: -0.057 in test [5].
For RPUSD3 (UniProt Q6P087), the log2 fold change in test [1] is inactive: -0.056; in test [2] it was inactive: -0.144; in test [3] it was inactive: 0.062; in test [4], inactive: 0.009; in test [5], inactive: -0.016.
Consider RPN2 (UniProt P04844), for which the log2 fold change in test [1] was inactive: -0.007; in test [2], inactive: 0.118; in test [3], inactive: 0.008; in test [4], inactive: -0.04; in test [5] it was inactive: -0.009.
As to RRS1 (UniProt Q15050), the log2 fold change in test [1] is inactive: 0.02; in test [2], inactive: 0.054; in test [3] it was inactive: 0.052; in test [4], inactive: 0.009; in test [5] it was inactive: -0.009.
As for RPS27 (UniProt P42677), the log2 fold change was inactive: 0.032 in test [1]; inactive: 0.058 in test [2]; inactive: -0.119 in test [3]; inactive: 0.077 in test [4]; inactive: -0.004 in test [5].
With RRM2B isoform 6 (UniProt Q7LG56), the log2 fold change in test [1] is inactive: 0.011; in test [2], inactive: 0.089; in test [3] it was inactive: 0.009; in test [4], inactive: 0.012; in test [5] it was inactive: 0.006.
For the target RXRB isoform 3 (UniProt P28702), the log2 fold change in test [1] is inactive: 0.067; in test [2], active: -0.757; in test [3], inactive: 0.168; in test [4], inactive: 0.07; in test [5], inactive: 0.006.
The corresponding values for RRAGB (UniProt Q5VZM2) are inactive: 0.024, inactive: 0.104, inactive: -0.005, inactive: -0.009 and inactive: 0.059.
On to RPSA (UniProt P08865), for which the log2 fold change is inactive: 0.03 in test [1]; inactive: 0.009 in test [2]; inactive: 0.036 in test [3]; inactive: 0.04 in test [4]; inactive: -0.003 in test [5].
RRBP1 isoform 3 (UniProt Q9P2E9): the log2 fold change is inactive: -0.002 in test [1]; inactive: 0.118 in test [2]; inactive: -0.109 in test [3]; inactive: -0.11 in test [4]; inactive: 0.123 in test [5].
In the case of RTN4IP1 (UniProt Q8WWV3), the log2 fold change in test [1] was inactive: -0.1; in test [2] it was active: -0.338; in test [3] it was inactive: 0.165; in test [4], inactive: 0.054; in test [5] it was inactive: -0.01.
Regarding RSAD1 (UniProt Q9HA92), the log2 fold change in test [1] is inactive: 0.176; in test [2], inactive: -0.144; in test [3] it was inactive: -0.032; in test [4] it was inactive: -0.002; in test [5], inactive: -0.01.
Regarding RPS2 (UniProt P15880), the log2 fold change was inactive: 0.003 in test [1]; inactive: 0.13 in test [2]; inactive: 0.01 in test [3]; inactive: 0.007 in test [4]; inactive: 0.014 in test [5].
As to RRM1 (UniProt P23921), the log2 fold change is inactive: 0.011 in test [1]; active: -0.227 in test [2]; inactive: 0.027 in test [3]; inactive: -0.003 in test [4]; inactive: -0.013 in test [5].
With RREB1 isoform 2 (UniProt Q92766), the log2 fold change in test [1] is inactive: 0.172; in test [2], inactive: -0.206; in test [3], inactive: 0.044; in test [4] it was inactive: 0.031; in test [5], inactive: -0.363.
For the target RUNX1 isoform 8 (UniProt Q01196), the log2 fold change in test [1] is inactive: 0.109; in test [2], inactive: -0.17; in test [3] it was inactive: -0.001; in test [4], inactive: -0.031; in test [5], inactive: -0.006.
For RPL38 (UniProt P63173), the log2 fold change is inactive: 0.026 in test [1]; inactive: 0.048 in test [2]; inactive: 0.027 in test [3]; inactive: -0.013 in test [4]; inactive: 0.013 in test [5].
The corresponding values for RPL9 (UniProt P32969) are inactive: -0.027, inactive: -0.054, inactive: 0.006, inactive: 0.003 and inactive: 0.013.
The corresponding values for RRP15 (UniProt Q9Y3B9) are inactive: 0.002, inactive: 0.129, inactive: -0.006, inactive: 0.006 and inactive: 0.071.
On to RPP25 (UniProt Q9BUL9), for which the log2 fold change in test [1] is inactive: -0.06; in test [2], inactive: 0.063; in test [3], inactive: -0.159; in test [4], inactive: 0.084; in test [5] it was inactive: -0.038.
